Results deposited as PubChem BioAssay AID504764 (Drosophila RNAi Screening Center, 2011).

Purpose: 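Knock-downs that raise or lower a Notch target reporter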 (primary screen)
Cells: Drosophila Kc167 cells
Reagents: long dsRNA against Drosophila genes
Time to read-out: about 5 days (4 days dsRNA, then 24 h after transfection)
Treatment: transfection of constitutively active membrane-tethered Notch lacking the extracellular domain, read 24 h later
Measured: 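Firefly luciferase from an E(spl)m3 reporter with active Notch, plus control-promoter and uninduced reporter wells for normalisation; unnormalised counts, duplicate wells a and b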
Direction: induced reporter light, run 1, well a and induced reporter light, run 1, well b: higher = more light from the Notch target reporter with active Notch; control promoter light, run 1, well a and control promoter light, run 1, well b: higher = more light from the viral control promoter (cell number, transfection, viability); uninduced reporter light, run 1, well a: higher = more light from the Notch target reporter without active Notch
Hit rule: 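Hit if the duplicate-averaged log2 ratio of induced to control-promoter light gives a plate-wise z beyond ±2, or induced to uninduced beyond ±1.8; weak-control or discordant-duplicate wells dropped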
Meaning of the calls: active = modifier hit (raised or lowered Notch signal); inactive = not a hit
The deposit covers about 22,000 reagents; below is a random part of those with a known target gene and a result. In the full data, 403 (1.9%) were called active. 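Unnormalised raw counts per well; ratio z-scores behind the hit calls and whether each hit raises or lowers signal are not deposited.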 The numbers tell different reagents against one gene apart. The record does not give: the amount of reagent.

For ewg (erect wing), how do the results read?
induced reporter light, run 1, well a: 1.25e5; induced reporter light, run 1, well b: 1.10e5; control promoter light, run 1, well a: 2.58e5; control promoter light, run 1, well b: 2.24e5; uninduced reporter light, run 1, well a: 7610; call: inactive

With Ir92a (Ionotropic receptor 92a), what was measured?
induced reporter light, run 1, well a: 1.93e5; induced reporter light, run 1, well b: 1.62e5; control promoter light, run 1, well a: 2.29e5; control promoter light, run 1, well b: 2.01e5; uninduced reporter light, run 1, well a: 13045; call: inactive

With RhoBTB (Rho-related BTB domain containing), what does the deposit list?
induced reporter light, run 1, well a: 78775; induced reporter light, run 1, well b: 82260; control promoter light, run 1, well a: 63950; control promoter light, run 1, well b: 85360; uninduced reporter light, run 1, well a: 6785; call: inactive

For Syx16 (Syntaxin 16), what does the deposit list?
induced reporter light, run 1, well a: 1.22e5; induced reporter light, run 1, well b: 1.16e5; control promoter light, run 1, well a: 1.05e5; control promoter light, run 1, well b: 57700; uninduced reporter light, run 1, well a: 9450; call: inactive

What is on record for unc-119?
induced reporter light, run 1, well a: 1.51e5; induced reporter light, run 1, well b: 1.36e5; control promoter light, run 1, well a: 2.75e5; control promoter light, run 1, well b: 2.45e5; uninduced reporter light, run 1, well a: 12485; call: inactive

For Nab2 (Nuclear polyadenosine RNA-binding 2), what does the deposit list?
induced reporter light, run 1, well a: 15678; induced reporter light, run 1, well b: 12025; control promoter light, run 1, well a: 14820; control promoter light, run 1, well b: 17920; uninduced reporter light, run 1, well a: 955; call: active

Which result is listed for CG15263?
induced reporter light, run 1, well a: 1.43e5; induced reporter light, run 1, well b: 1.33e5; control promoter light, run 1, well a: 1.37e5; control promoter light, run 1, well b: 1.68e5; uninduced reporter light, run 1, well a: 11142; call: inactive

What is on record for Mekk1 #1?
induced reporter light, run 1, well a: 2.02e5; induced reporter light, run 1, well b: 2.54e5; control promoter light, run 1, well a: 2.84e5; control promoter light, run 1, well b: 3.49e5; uninduced reporter light, run 1, well a: 16135; call: inactive

With Mekk1 #2, how do the results read?
induced reporter light, run 1, well a: 1.86e5; induced reporter light, run 1, well b: 1.52e5; control promoter light, run 1, well a: 1.85e5; control promoter light, run 1, well b: 1.71e5; uninduced reporter light, run 1, well a: 12030; call: inactive

What is on record for mus304 (mutagen-sensitive 304)?
induced reporter light, run 1, well a: 1.59e5; induced reporter light, run 1, well b: 1.65e5; control promoter light, run 1, well a: 2.14e5; control promoter light, run 1, well b: 1.91e5; uninduced reporter light, run 1, well a: 7250; call: inactive

With mirr (mirror), what was measured?
induced reporter light, run 1, well a: 1.30e5; induced reporter light, run 1, well b: 1.60e5; control promoter light, run 1, well a: 1.75e5; control promoter light, run 1, well b: 1.99e5; uninduced reporter light, run 1, well a: 8740; call: inactive

With CG34225, what does the deposit list?
induced reporter light, run 1, well a: 1.57e5; induced reporter light, run 1, well b: 1.89e5; control promoter light, run 1, well a: 2.67e5; control promoter light, run 1, well b: 3.25e5; uninduced reporter light, run 1, well a: 20120; call: inactive

Ordered by “uninduced reporter light, run 1, well a” (highest first): 2 of the entries above.
mirr (mirror) — induced reporter light, run 1, well a = 1.30e5; induced reporter light, run 1, well b = 1.60e5; control promoter light, run 1, well a = 1.75e5; control promoter light, run 1, well b = 1.99e5; uninduced reporter light, run 1, well a = 8740; call = inactive
mus304 (mutagen-sensitive 304) — induced reporter light, run 1, well a = 1.59e5; induced reporter light, run 1, well b = 1.65e5; control promoter light, run 1, well a = 2.14e5; control promoter light, run 1, well b = 1.91e5; uninduced reporter light, run 1, well a = 7250; call = inactive
